Where a name gives a salt, the structure may show the parent alone. The whole screen tested about 5,300 compounds, of which about 130 (2.5%) showed an effect of 50% or more. The list shows a part of the results. Peptide text beside a SMILES is read from it.

This test deals with M. mycetomatis strain mm55. The conditions noted are these: primary screen, metabolic activity vs growth control; 96 h, 2 µM; inhibitor.
Take `OCCOCCN1CCN(C(c2ccccc2)c2ccc(Cl)cc2)CC1` (stereo not drawn) [ONC0000576, hydroxyzine pamoate]: the “% viability” value was 125.6%.

In the case of `C[C@@H]1CC2C3CCC4=CC(=O)C=C[C@]4(C)[C@@]3(F)[C@@H](O)C[C@]2(C)[C@H]1C(=O)CO` (stereo partly drawn) [ONC0004115, desoxymetasone], the “% viability” value stood at 133.2%.

`Cc1cc(CCCOc2c(C)cc(-c3noc(C(F)(F)F)n3)cc2C)on1` [ONC0004271, pleconaril]: the “% viability” value amounted to 89.31%.

Regarding `COc1ccc(CNC(=O)Nc2ncc([N+](=O)[O-])s2)cc1` [ONC0000879, ara014418], the “% viability” value is on record as 83.72%.

For the compound `O=C(NS(=O)(=O)c1ccc(Br)s1)c1ccc(Cl)cc1Cl` [ONC0005127, tasisulam ly573636], the “% viability” value was 83.11%.

For the compound `OC[C@H]1O[C@@](CO)(O[C@H]2O[C@H](CO)[C@@H](O)[C@H](O)[C@H]2O)[C@@H](O)[C@@H]1O` [ONC0005578, sucrose], the “% viability” value is recorded as 90.89%.

With `O=S(=O)(O)CCCS(=O)(=O)O` [ONC0005304, eprodisate disodium], the “% viability” value was determined as 61.63%.

As to `O=C1N[C@@H]2[C@@H](O)[C@@H](O)[C@H](O)[C@@H](CO)N2C1=O` [ONC0003241, kifunensine], the “% viability” value was determined as 83.58%.

In the case of `COC(=O)C1=C(C)N(C)C(C)=C(C(=O)OC)C1c1ccc(C(F)(F)F)cc1` [ONC0002913, bayw9798], the “% viability” value amounted to 53.61%.

`NC(=S)N/N=C/c1ncccc1N` [ONC0001159, triapine]: the “% viability” value is reported as 70.16%.

On to `CCCCCCCCCCCCCCCCCCCCCCCCC(=O)O` [ONC0002800], for which the “% viability” value stood at 89.28%.

For `CCOC(=O)C1=CCCC[C@H]1S(=O)(=O)Nc1ccc(F)cc1Cl` [ONC0002465, resatorvid], the “% viability” value was found to be 53.89%.

Regarding `CCCN[C@@H]1CCc2c(OC)cccc2[C@@H]1C` [ONC0003107, aj76], the “% viability” value worked out at 71.21%.

As for `C/C=C(\C)C(=O)O[C@H]1[C@H](OC(C)=O)[C@@]2(CO)C(CC1(C)C)C1=CCC3[C@@]4(C)CCC(O[C@@H]5O[C@H](C(=O)O)[C@@H](O[C@@H]6O[C@H](CO)[C@@H](O)[C@H](O)[C@H]6O)[C@H](O)[C@H]5O[C@@H]5O[C@H](CO)[C@@H](O)[C@H](O)[C@H]5O)[C@](C)(CO)C4CC[C@@]3(C)[C@]1(C)C[C@H]2O` (stereo partly drawn) [ONC0002310, escin], the “% viability” value is 67.54%.

Take `Cc1ccc(NC2=CC(=O)c3sc(C)nc3C2=O)cc1` [ONC0003545, ryuvidine]: the “% viability” value is given as 94.75%.

Take `COc1ccc2[nH]c([S+]([O-])Cc3ncc(C)c(OC)c3C)nc2c1` (stereo not drawn) [ONC0004073, omeprazole]: the “% viability” value is recorded as 121.3%.

Consider `CCS(=O)(=O)Nc1ccc2c(c1)/C(=C(/Nc1ccc(CN3CCCCC3)cc1)c1ccccc1)C(=O)N2` [ONC0000287, hesperadin], for which the “% viability” value turned out to be 53.58%.

As to `CC1(C)OC[C@H](NC(=O)Nc2ccc(Br)cc2Br)[C@H](c2ccccc2)O1` [ONC0000012, jnj10397049], the “% viability” value was 107.6%.

In the case of `O=C(NC(Cc1c[nH]c2ccccc12)C(=O)O)c1ccc(Cl)cc1` (stereo not drawn) [ONC0003778, benzotript], the “% viability” value came out at 95.54%.

For `OC(CCN1CCCCC1)(c1ccccc1)C1CCCCC1` (stereo not drawn) [ONC0003172, trihexyphenidyl hydrochloride], the “% viability” value is 87.25%.

For the compound `Cc1ccc(O)c(/N=N/c2ccccc2)n1` [ONC0000857, sib1757], the “% viability” value is listed as 82.32%.

Consider `NC(Cc1ccc(O)cc1)C(=O)O` (stereo not drawn) [ONC0003385, dltyrosine], for which the “% viability” value was 63.01%.

Turning to `N=C(N)N/N=C/c1c(Cl)cccc1Cl` [ONC0000441, guanabenz acetate], the “% viability” value is on record as 88%.

`N#Cc1cc(F)cc(-c2nc(-c3ccc(F)cn3)no2)c1` [ONC0001408, azd9272]: the “% viability” value came out at 138.3%.

For `N[C@@H](Cc1ccc(O)cc1)C(=O)NCC(=O)NCC(=O)O` [ONC0003693, ltyrosylglycylglycine] (H-Tyr-Gly-Gly-OH), the “% viability” value turned out to be 81.53%.

For the compound `Cc1ccc2c(Cl)cc(Cl)c(O)c2n1` [ONC0003292, chlorquinaldol], the “% viability” value came out at 83.81%.

As for `OC[C@H]1NC[C@@H](O)[C@@H](O)[C@@H]1O` [ONC0001492, 1deoxymannojirimycin], the “% viability” value is given as 81.25%.

Consider `COc1ccc(/C=C2\CCCN=C2c2cccnc2)c(OC)c1` [ONC0001889, gts21], for which the “% viability” value is 72.7%.

`CCCc1nc(C(C)(C)O)c(C(=O)O)n1Cc1ccc(-c2ccccc2-c2nnn[nH]2)cc1` [ONC0001256, olmesartan]: the “% viability” value is given as 65.5%.

On to `COc1ccc(C[C@H](C)NC[C@@H](O)c2ccc(O)c(NC=O)c2)cc1` [ONC0001548, formoterol], for which the “% viability” value turned out to be 81.88%.

Consider `N[C@@H](CC(=O)NO)C(=O)O` [ONC0005577, lasparaginenhydroxy], for which the “% viability” value stood at 46.79%.

Turning to `COc1nc(C)nc(Cl)c1N=C1NCCN1` [ONC0003528, moxonidine], the “% viability” value worked out at 108%.

For the compound `CN(C)CCOC(=O)COc1ccc(Cl)cc1` [ONC0003119, meclofenoxate hydrochloride], the “% viability” value was found to be 70.61%.

Regarding `Brc1c(NC2=NCCN2)ccc2nccnc12` [ONC0003077, brimonidine], the “% viability” value was 64.39%.

For the compound `CC/C=C\C/C=C\C/C=C/C/C=C\C/C=C\C/C=C\CCC(=O)OCC` [ONC0002811], the “% viability” value was determined as 151.6%.

On to `C[C@H](Oc1cc(-c2cnn(C3CCNCC3)c2)cnc1N)c1c(Cl)ccc(F)c1Cl` [ONC0005182, scrizotinib], for which the “% viability” value is 102.4%.

As for `CC[C@H]1[C@@H](O)[C@@H]2[C@H](CC[C@]3(C)[C@@H]([C@H](C)CCOS(=O)(=O)O)CC[C@@H]23)[C@@]2(C)CC[C@@H](O)C[C@@H]12` [ONC0001140, int767], the “% viability” value is 81.25%.

As for `COC(=O)C(N)CS` (stereo not drawn) [ONC0003811, mecysteine hydrochloride], the “% viability” value stood at 98.34%.

Turning to `CC(N)C12CC3CC(CC(C3)C1)C2` (stereo not drawn) [ONC0003913, rimantadine hydrochloride], the “% viability” value turned out to be 69.15%.

For `CCOC(=O)c1c(C)n(C)c2ccc(O)cc12` [ONC0004780, mecarbinate], the “% viability” value is reported as 73.77%.

Take `Nc1cc(-c2ccncc2)c[nH]c1=O` [ONC0002877, inamrinone]: the “% viability” value amounted to 98.79%.

For the compound `c1ccc2c(c1)CCCc1cc(NCCN3CCOCC3)nnc1-2` [ONC0002371, sr95639a], the “% viability” value stood at 88.18%.

Consider `CCC(=O)NC[C@H](Cc1ccc(OCCc2nc(-c3ccccc3)oc2C)cc1)N/C(C)=C\C(=O)c1ccc(C(F)(F)F)cc1` [ONC0001652, gw6471], for which the “% viability” value was 62.72%.

On to `Fc1cc(-c2cccc3ncc(-c4cnn(C5CCNCC5)c4)nc23)cc(F)c1CN1CCOCC1` [ONC0005097, nvpbsk805 2hcl], for which the “% viability” value was 105.3%.

Consider `C=C[C@@H]1C[C@]1(NC(=O)[C@@H]1C[C@@H](Oc2ncc(OC)c3ccc(Cl)cc23)CN1C(=O)[C@@H](NC(=O)OC(C)(C)C)C(C)(C)C)C(=O)NS(=O)(=O)C1CC1` [ONC0000817, asunaprevir], for which the “% viability” value stood at 83.06%.

`Nc1nncs1` [ONC0005612, aminothiadiazole]: the “% viability” value was 142.1%.

As to `CN(CCOc1ccc(CC2SC(=O)NC2=O)cc1)c1ccccn1` (stereo not drawn) [ONC0004226, rosiglitazone maleate], the “% viability” value worked out at 84.91%.

In the case of `c1ccc2nc(C3=NCCN3)cnc2c1` [ONC0003136, bu239], the “% viability” value was found to be 58.56%.

On to `CN(C)CC[C@@H](c1ccc(Cl)cc1)c1ccccn1` [ONC0000351, dexchlorpheniramine maleate], for which the “% viability” value stood at 73.73%.

With `CC(=O)OCC(=O)[C@@]1(O)CCC2C3CCC4=CC(=O)CC[C@]4(C)C3[C@@H](O)C[C@@]21C` (stereo partly drawn) [ONC0000452, hydrocortisone acetate], the “% viability” value came out at 83.81%.

For the compound `C=C1CCC2(O)C3Cc4ccc(O)c5c4C2(CCN3CC2CC2)C1O5` (stereo not drawn) [ONC0004788, nalmefene hydrochloride], the “% viability” value is given as 133.8%.

Consider `O=C(NCC(=O)N1CCCC1)Nc1ccc2cnccc2c1` [ONC0002723, sgc707], for which the “% viability” value is 66.38%.

Turning to `CCN(c1cc(-c2ccc(CN3CCOCC3)cc2)cc(C(=O)NCc2c(C)cc(C)[nH]c2=O)c1C)C1CCOCC1` [ONC0004373, tazemetostat epz6438], the “% viability” value was found to be 81.86%.

Regarding `NC(N)=O` [ONC0003184, urea], the “% viability” value came out at 95.67%.

On to `Cc1cccc(C)c1NC(=O)CN1CCCCCC1` [ONC0002330, pincainide], for which the “% viability” value is reported as 57.17%.

As for `Cn1c([N+](=O)[O-])cnc1COC(N)=O` [ONC0000624, ronidazole], the “% viability” value is listed as 136.6%.

For the compound `COc1ccc2c(c1)c(CC(=O)OCC(C(=O)O)c1ccccc1)c(C)n2C(=O)c1ccc(Cl)cc1` (stereo not drawn) [ONC0005419, tropesin], the “% viability” value is 78%.

In the case of `O=C1c2ccccc2S(=O)(=O)N1CCCCN1CCN(c2ncccn2)CC1` [ONC0004443, ipsapirone], the “% viability” value was determined as 111.9%.

Consider `CCn1c(O)nnc1-c1ccc(Cl)cc1` [ONC0004218, 54chlorophenyl4ethyl24dihydro3h124triazol3one], for which the “% viability” value came out at 123.6%.

As for `O=C(O)CC1CC(c2ccccc2)=NO1` (stereo not drawn) [ONC0004704, vgx1027], the “% viability” value was determined as 119.9%.

For the compound `COc1ccc(C2Oc3c(CC=C(C)C)c(O)cc(O)c3C(=O)C2=O)cc1` (stereo not drawn) [ONC0005395, 57dihydroxy24methoxyphenyl83methyl2buten1yl2hchromene34dione], the “% viability” value was 83.8%.

As to `O=C(O)CCc1cc(C(=O)c2ccc(OC3CCCC3)cc2O)ccc1OCc1ccc2c(O)noc2c1` [ONC0002038, t5224], the “% viability” value is given as 91.59%.

Regarding `O=C(O)c1cc(O)c2ccc(Cl)cc2n1` [ONC0000108, 7chlorokynurenicacid], the “% viability” value is reported as 110.4%.

The values are drawn from paper PMC12670160, “A drug-repurposing screen of FDA- and EMA-approved drugs identifies two NF-κB inhibitors active against eumycetoma” (Journal of Antimicrobial Chemotherapy, 2025).
